PubChem BioAssay AID540256 (National Center for Advancing Translational Sciences (NCATS), 2011)
Screen size: about 300,000 compounds; about 3,700 (1.2%) were called active. The inconclusive results got no clear call from the source; some entries with a clear call stand among them for comparison. Calls come from the whole dose curve; tested in HEK293 cells. Potencies beside an inconclusive call are fits to weak or partial responses and may not hold up.

assay: qHTS for Inhibitors of binding or entry into cells for Lassa Virus; settings: Lassa virus pseudotype entry inhibition, cell reporter; activity change, negative = inhibition: at 37.9 µM (top of the series) unless noted; note: nearly all actives have a fitted effect of over 50% in size
% is set by controls: 0 for no effect and ±100 for the full control effect; potency is the fitted concentration of half-maximal effect.

| SMILES | Potency | activity change, negative = inhibition |
| --- | --- | --- |
| CSc1ccccc1C(=O)Nc1ccc(C)c(C)c1 | inconclusive: 3.26 µM [activator, full curve, poor fit] | – |
| CC(=O)Nc1c(Cl)cc2c(c1Cl)C(=O)c1ccccc1-2 | inconclusive: 2.24 µM [inhibitor, partial curve, poor fit] | – |
| Cc1cc(C(=O)N[C@H](c2ccccc2)[C@@]2(C)C[C@@H]2[C@@H](C)C(=O)Nc2ccc3ccccc3c2)n(C)n1 | inconclusive: 13 µM [inhibitor, partial curve, poor fit] | – |
| O=S1(=O)C=CCN1Cc1ccccc1 | inconclusive: 39.6 µM [activator, single point] | – |
| COc1ccc(NC(=O)c2sccc2-n2cccc2)cc1 | – | inactive: 9.64% |
| COc1cc(C2C3=C(Nc4ncnn42)c2ccccc2CC3)cc(OC)c1OC (stereo not drawn) | inconclusive: 1.03 µM [inhibitor, full curve] | – |
| CC1CCCN(S(=O)(=O)c2ccc3c(c2)c(=O)nc2ccc(Cl)cn23)C1 (stereo not drawn) | inconclusive: 14.1 µM [activator, partial curve, poor fit] | – |
| Cc1ccc2c(=O)cc(C(=O)Nc3c(C)n(C)n(-c4ccccc4)c3=O)oc2c1C | – | inactive: 12.3% [at 46.1 µM] |
| C=CCn1c(COc2ccccc2)nnc1SC(C)C(=O)N/N=C/c1cc(Cl)ccc1O (stereo not drawn) | inconclusive: 35.5 µM [inhibitor, single point] | – |
| N=c1nc(N)nc2n1NC(c1ccc(F)cc1)=CS2 | inconclusive: 8.2 µM [inhibitor, partial curve, poor fit] | – |
| COCCCN1C(=O)c2ccc(C(=O)Nc3ccc(OC)cc3)cc2C1=O | inconclusive: 8.2 µM [activator, partial curve] | – |
| O=C(CN1C(=O)NC(c2ccccc2)(c2ccccc2)C1=O)NCCc1ccc(F)cc1 | – | inactive: -5.67% [at 46.1 µM] |
| COn1c(SCc2ccc(C)cc2C)nc2ccccc2c1=O | inconclusive: 20.6 µM [inhibitor, single point] | – |
| COc1ccc(OC)c(NC(=O)Cn2cc(C(=O)c3ccco3)c3ccccc32)c1 | inconclusive: 1.16 µM [inhibitor, full curve, poor fit] | – |
| Cc1ccc(-c2nnc(Nc3ccc(Br)cc3)c3ccccc23)cc1S(=O)(=O)N1CCCCC1 | inconclusive: 1.12 µM [activator, partial curve, poor fit] | – |
| CCOc1ccc(C(=O)N2CCN(c3ccccc3)CC2)cc1 | – | inactive: 3.65% |
| Cc1sc(NC(=S)NC(=O)c2ccc(C(C)(C)C)cc2)c(C#N)c1C | inconclusive: 23.1 µM [inhibitor, single point] | – |
| O=C(Cn1cnc2c(nc3n2CCCCC3)c1=O)Nc1ccc(F)cc1 | inconclusive: 12.6 µM [activator, single point] | – |
| CCCN(CCC)CCCNC(=O)Cn1cnc2onc(-c3ccc(F)cc3)c2c1=O | inconclusive: 35.5 µM [activator, single point] | – |
| C/C(=N\NC(=O)c1cccnc1)c1cc(C)oc1C | inconclusive: 11.2 µM [activator, partial curve, poor fit] | – |
| O=C(Nc1ccc(Cc2ccncc2)cc1)c1ccc(N2CCOCC2)c([N+](=O)[O-])c1 | inconclusive: 22.4 µM [inhibitor, single point] | – |
| Cc1ccc(CCNC(=O)C2CCN(C(=O)N(C)C)CC2)cc1 | – | inactive: -10.9% |

Taken from above.
Potency with `CC1CCCN(S(=O)(=O)c2ccc3c(c2)c(=O)nc2ccc(Cl)cn23)C1` (stereo not drawn) reads inconclusive: 14.1 µM [activator, partial curve, poor fit]
Potency with `C/C(=N\NC(=O)c1cccnc1)c1cc(C)oc1C` reads inconclusive: 11.2 µM [activator, partial curve, poor fit]

(next part)

| SMILES | Potency | activity change, negative = inhibition |
| --- | --- | --- |
| CN1C(=O)c2cccc(N(C)C)c2C1=O | inconclusive: 18.3 µM [activator, single point] | – |
| O=C(CCCn1c(=O)[nH]c2ccccc2c1=O)NCc1ccccc1Cl | – | inactive: -2.28% [at 46.1 µM] |
| Cc1ccc(SC(C)C(=O)Nc2cccc(N(C)S(C)(=O)=O)c2)cc1 (stereo not drawn) | inconclusive: 23.1 µM [inhibitor, partial curve, poor fit] | – |
| CC(C)c1ccc(NC(=O)CCCc2nc(-c3ccc(Cl)cc3)no2)cc1 | – | inactive: -0.19% [at 46.1 µM] |
| COc1cccc(NC(=O)CN(C)C(=O)/C=C/c2cn(Cc3ccccc3)nc2-c2cccnc2)c1 | – | inactive: -16% |
| O=S(=O)(/C=C/c1ccccc1)N1CCN(Cc2ccccc2)CC1 | inconclusive: 1.41 µM [inhibitor, full curve, poor fit] | – |
| COC(=O)c1ccnc(SCC(=O)c2ccccc2)c1 | – | inactive: 2.99% |
| CCOc1ccc(NC(=O)c2ccc3nccnc3c2)cc1 | – | inactive: 13.7% |
| C=CCSc1nc2ccccc2[nH]1 | inconclusive: 14.1 µM [activator, single point] | – |
| Cc1cccc(CSc2nc3ccncc3n2CC(=O)Nc2cc(C)cc(C)c2)c1 | inconclusive: 0.13 µM [inhibitor, partial curve, poor fit] | – |
| CCOc1ccc(/C=N/Nc2nc(N3CCCC3)nc(N3CCCC3)n2)cc1OC | inconclusive: 32.6 µM [inhibitor, single point] | – |
| CCc1ccc(NC(=O)C2CCN(c3cc(C)nc4c(-c5ccc(Cl)cc5)c(C)nn34)CC2)cc1 | – | inactive: 3.6% [at 46.1 µM] |
| Cc1cc(OCCCSc2nc(-c3ccc(C(C)(C)C)cc3)nc3cc(=O)[nH]n23)ccc1Cl | – | inactive: -8.27% [at 46.1 µM] |
| COc1cccc(CNC(=O)CC(c2ccc(F)cc2)N2Cc3ccccc3C2=O)c1 (stereo not drawn) | – | inactive: 5.57% [at 46.1 µM] |
| Cc1cc(C)c(C)c(C(=O)C(=O)c2ccccc2)c1 | inconclusive: 4.47 µM [activator, partial curve, poor fit] | – |
| COc1cc(/C=C2\SC(=S)N(NC(=O)c3ccc(O)cc3)C2=O)ccc1O | inconclusive: 10 µM [inhibitor, partial curve, poor fit] | – |
| C(=Cc1c[nH]c2ccccc12)c1ccc2ccccc2n1 | inconclusive: 4.47 µM [inhibitor, partial curve, poor fit] | – |
| O=C1CSC(c2ccc(Cl)cc2)N1Nc1nc(N2CCOCC2)nc(N2CCOCC2)n1 (stereo not drawn) | inconclusive: 9.2 µM [inhibitor, partial curve, poor fit] | – |
| CCc1ccc(-c2cc(C(F)(F)F)n3nc(C(=O)Nc4c(C)nn(Cc5ccc(F)cc5)c4C)cc3n2)s1 | – | inactive: 2.76% |
| COc1ccc(OCc2nnc(SCC(=O)N3c4ccccc4Sc4ccc(Cl)cc43)o2)cc1 | inconclusive: 23.1 µM [inhibitor, single point] | – |
| Cn1c(=O)c2c(nc(CN3CCC(Cc4ccccc4)CC3)n2CCN2CCOCC2)n(C)c1=O | active: 10.3 µM | – |
